Reference: PubChem BioAssay AID1224830 (NIAID, 2016)
Screen: 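Genes whose knock-down alters the TNF-alpha reporter response to LPS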 (primary screen). Cells: human THP-1 monocytic leukaemia cells, TNF dual-luciferase reporter clone, PMA-differentiated to macrophage-like cells. Knock-down reagent: siRNA pool against human genes, 50 nM. Duration: LPS for 4 h, given about 3 days after siRNA transfection. Conditions: bacterial LPS (TLR4 ligand), 10 ng/ml. Measured: 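TNF firefly reporter luminescence divided by renilla, normalised to the plate median, then turned into a robust z-score for each replicate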. Direction: TNF reporter robust z-score: higher = stronger TNF reporter response to LPS. Hit rule: 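Each well counts as active if its z-score is over 2.8 or under -1.5; controls are left without a call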.
The whole screen tested about 18,000 reagents; this is an unselected part. Of all reagents, about 2,900 (16%) got an active call. 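Calls are made per well; low scores hint the gene aids the LPS response, high scores that it dampens it.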 Repeated entries: four replicate wells of each siRNA pool.

no.	gene	TNF reporter robust z-score	outcome
1	PAGE4	-0.65	inactive
2	PAGE4	-0.81	inactive
3	PAGE4	-0.48	inactive
4	PAGE4	-0.25	inactive
5	TMEM230	-0.97	inactive
6	TMEM230	-0.99	inactive
7	TMEM230	-0.67	inactive
8	TMEM230	-0.91	inactive
9	TET1	0.69	inactive
10	TET1	0.96	inactive
11	TET1	0.7	inactive
12	TET1	0.67	inactive
13	DAZAP2	2.77	inactive
14	DAZAP2	0.61	inactive
15	DAZAP2	-0.65	inactive
16	DAZAP2	-0.22	inactive
17	ANKRD20A1	-0.41	inactive
18	ANKRD20A1	-0.02	inactive
19	ANKRD20A1	-0.22	inactive
20	ANKRD20A1	-1.05	inactive
21	NLRC5	0.71	inactive
22	NLRC5	0.11	inactive
23	NLRC5	0.94	inactive
24	NLRC5	-0.47	inactive
25	BEST2	-0.43	inactive
26	BEST2	-0.55	inactive
27	BEST2	0.02	inactive
28	BEST2	0.24	inactive
29	SLC51A	-0.25	inactive
30	SLC51A	-0.4	inactive
31	SLC51A	0.05	inactive
32	SLC51A	-0.11	inactive
33	TSPYL5	0.01	inactive
34	TSPYL5	1.89	inactive
35	TSPYL5	-0.42	inactive
36	TSPYL5	-0.54	inactive
37	POLR1A	-0.36	inactive
38	POLR1A	0.84	inactive
39	POLR1A	0.34	inactive
40	POLR1A	2.29	inactive
41	AMTN	1.45	inactive
42	AMTN	0.13	inactive
43	AMTN	0.97	inactive
44	AMTN	1.01	inactive
45	NME5	-0.28	inactive
46	NME5	-0.49	inactive
47	NME5	-0.09	inactive
48	NME5	0.22	inactive
49	SLC1A2	-0.49	inactive
50	SLC1A2	-0.81	inactive
51	SLC1A2	-1.17	inactive
52	SLC1A2	1.96	inactive
53	LRP5L	0.73	inactive
54	LRP5L	0.96	inactive
55	LRP5L	-0.33	inactive
56	DEFB129	0.61	inactive
57	DEFB129	1.34	inactive
58	DEFB129	-0.28	inactive
59	DEFB129	-0.88	inactive
60	CCBE1	-0.42	inactive
61	CCBE1	1.73	inactive
62	CCBE1	-0.32	inactive
63	CCBE1	-0.17	inactive
64	LRGUK	-0.45	inactive
65	LRGUK	-0.66	inactive
66	LRGUK	-0.58	inactive
67	LRGUK	0.01	inactive
68	ARHGEF10	-0.05	inactive
69	ARHGEF10	1.39	inactive
70	ARHGEF10	0.64	inactive
71	ARHGEF10	1.2	inactive
72	PCDHGA3	0.15	inactive
73	PCDHGA3	1.41	inactive
74	PCDHGA3	0.19	inactive
75	PCDHGA3	1.82	inactive
76	TTC9C	0.37	inactive
77	TTC9C	-0.66	inactive
78	TTC9C	-1.06	inactive
79	TTC9C	-0.46	inactive
80	IPO13	4.91	active
81	IPO13	3.52	active
82	IPO13	2.48	inactive
83	IPO13	2.63	inactive
84	ZNF12	0.06	inactive
85	ZNF12	-0.61	inactive
86	ZNF12	0.6	inactive
87	ZNF12	0.64	inactive
88	ARHGAP21	-0.61	inactive
89	ARHGAP21	-0.78	inactive
90	ARHGAP21	-0.25	inactive
91	ARHGAP21	-0.53	inactive
92	PLXNA1	-1.34	inactive
93	PLXNA1	-1.28	inactive
94	PLXNA1	-1.89	active
95	PLXNA1	-1.38	inactive
96	PRDM14	1.4	inactive
97	PRDM14	1.29	inactive
98	PRDM14	-1.13	inactive
99	PRDM14	-0.7	inactive
100	RPS7	-0.59	inactive
101	RPS7	1.15	inactive
102	RPS7	-0.34	inactive
103	RPS7	0.59	inactive
104	ABHD12	-0.19	inactive
105	ABHD12	-0.63	inactive
106	ABHD12	-0.6	inactive
107	ABHD12	1.17	inactive
108	TRIM9	-0.01	inactive
109	TRIM9	-1.23	inactive
110	TRIM9	-1.35	inactive
111	TRIM9	-1.3	inactive

In a second layout: entries from further up.
gene,TNF reporter robust z-score,outcome
RPS7,-0.59,inactive
RPS7,1.15,inactive
RPS7,-0.34,inactive
RPS7,0.59,inactive
ABHD12,-0.19,inactive
ABHD12,-0.63,inactive
ABHD12,-0.6,inactive
ABHD12,1.17,inactive
TRIM9,-0.01,inactive
